# According to PubChem BioAssay (NCATS):
# The list shows a part of the results. These are further read-outs of the screen, such as a control signal, another cell line or another target. No call is given for them. The list favours compounds with an active or inconclusive main result. Potencies come from curve fits of mixed quality, noted in brackets.
# Test: NCATS anti-infectives library activity on the primary C. elegans qHTS viability assay (AID 1745855)
# Conditions: C. elegans worm area imaging, day 7, measured here: worm number
# Summary of the method: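 Viability is taken from GFP fluorescence of PE254-GFP-FLuc C. elegans imaged by laser cytometry over 7 days. Ten L1 worms per well grow at 21 °C on TOP10 E. coli capsules with titrated compound; levamisole marks toxicity.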
row,Compound,AC50
1,Cc1cc(Nc2cc(N)ncn2)c(=O)n2c1C(=O)NC21CCCCC1,"18.3 µM [falling, partial curve, poor fit]"
2,CC(C)c1nc(CN(C)C(=O)N[C@@H](CCN2CCOCC2)C(=O)N[C@H](CC[C@H](Cc2ccccc2)NC(=O)OCc2cncs2)Cc2ccccc2)cs1,"23 µM [falling, single point]"
3,N#CC(=C(/N)Sc1ccccc1N)/C(C#N)=C(\N)Sc1ccccc1N,"3.25 µM [falling, full curve, poor fit]"
4,Cc1cc(O)cc(C)c1Cl,"29 µM [falling, single point]"
5,Cc1cc(C)c(Nc2ccnc(Nc3ccc(C#N)cc3)n2)c(C)c1,"7.27 µM [falling, partial curve]"
6,CCCCCCCCCCCCCCCCn1cc[n+](Cc2ccccc2)c1C,"14.5 µM [falling, partial curve]"
7,Cc1ccc(S(=O)(=O)OCC(=O)Nc2ccc(C(=O)O)c(O)c2)cc1,"18.3 µM [falling, partial curve, poor fit]"
8,O=c1c(O[C@@H]2O[C@H](CO)[C@H](O)[C@H](O)[C@H]2O)c(-c2ccc(O)c(O)c2)oc2cc(O)cc(O)c12,"14.5 µM [falling, partial curve, poor fit]"
9,COc1c2c(cc3c1-c1c(cc4c(c1OC)OCO4)CC(C)C(C)C3)OCO2 (centres undefined),"22.6 µM [falling, single point]"
10,Cc1ccc(C2Nc3ccccc3C(=O)N2c2ccccc2)s1 (centres undefined),"0.0916 µM [falling, full curve, poor fit]"
11,O=P(O)(O)C(O)(Cn1ccnc1)P(=O)(O)O,"1.63 µM [falling, single point]"
12,COC(=O)c1cc(OC)c2c(c1-c1c(CO)cc(OC)c3c1OCO3)OCO2,"23 µM [falling, partial curve, poor fit]"
13,Cc1onc(-c2ccccc2)c1C(=O)N1CCN(c2ccc([N+](=O)[O-])cc2Cl)CC1,"0.916 µM [falling, partial curve, poor fit]"
14,C(=N\Nc1nc(Nc2ccccc2)nc(N2CCOCC2)n1)/c1c[nH]c2ccccc12,"4.59 µM [falling, partial curve, poor fit]"

# Fetched by structure from above (two):
row,Compound,AC50
9,COc1c2c(cc3c1-c1c(cc4c(c1OC)OCO4)CC(C)C(C)C3)OCO2 (centres undefined),"22.6 µM [falling, single point]"
5,Cc1cc(C)c(Nc2ccnc(Nc3ccc(C#N)cc3)n2)c(C)c1,"7.27 µM [falling, partial curve]"
